For experiment [1], the target named is Human Mesothelin/MSLN (296-580) (human) (UniProt Q13421). The experiment is described as follows: ELISA, MSLN coated on plate, same method as for the single mutants. For orientation: In an ELISA, binding on a coated surface is turned into a signal by an enzyme label.
The target is the same in experiment [2]. The experiment is described as follows: ELISA, MSLN coated on plate, scFv in 1/3 serial dilution, anti-strep HRP.
For experiment [3] the target is unchanged. The experiment is described as follows: ELISA, MSLN coated on plate (refers back to Experimental Examples 2.2 and 2.3).
Experiment [4] shares this target. The experiment is described as follows: ELISA, MSLN coated on plate (refers back to Experimental Example 2.2).

The chains behind the UniProt entries cited, without tags or fusion partners. Where a name states a change or a piece, a line headed by the entry shows the natural chain unless it says otherwise.
UniProt Q13421: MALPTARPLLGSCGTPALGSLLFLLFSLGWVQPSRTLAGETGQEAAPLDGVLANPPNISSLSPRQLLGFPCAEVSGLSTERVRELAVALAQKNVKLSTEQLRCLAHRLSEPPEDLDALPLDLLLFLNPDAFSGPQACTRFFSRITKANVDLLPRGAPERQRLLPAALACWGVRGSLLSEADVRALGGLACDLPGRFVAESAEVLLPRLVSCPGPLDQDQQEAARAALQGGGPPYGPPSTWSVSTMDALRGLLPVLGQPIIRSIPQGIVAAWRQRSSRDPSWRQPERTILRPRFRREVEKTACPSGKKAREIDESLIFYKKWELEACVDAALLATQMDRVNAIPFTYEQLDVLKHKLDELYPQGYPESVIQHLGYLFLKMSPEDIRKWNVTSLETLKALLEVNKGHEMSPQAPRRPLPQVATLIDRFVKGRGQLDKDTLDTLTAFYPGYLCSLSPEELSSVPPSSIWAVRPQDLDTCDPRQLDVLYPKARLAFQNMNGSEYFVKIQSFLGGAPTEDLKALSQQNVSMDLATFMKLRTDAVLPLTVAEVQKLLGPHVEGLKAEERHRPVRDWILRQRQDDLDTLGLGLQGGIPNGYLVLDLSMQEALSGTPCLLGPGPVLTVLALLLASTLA

Substitutions are numbered along the chain they refer to. Names and notes keep the numbering of the source. These are yes or no findings as the source states them, for the method shown. Some results given as binding are weak or reduced against the parent protein; the word gives no strength.

B1: MSLN34 scFv (wild type) (scFv, not shown: large carriers)
scFv: EVQLVESGGGLVQPGGSLRLSCAASGFTFSDYGMHWVRQAPGKGLEWVSSIYGSGGHTGYADSVKGRFTISRDNSKNTLYLQMNSLRAEDTAVYYCAKQHAYRYSYAFDVWGQGTLVTVSSGGGGSGGGGSGGGGSDIQMTQSPSSLSASVGDRVTITCRASQSISNWLNWYQQKPGKAPKLLIYATSSLQSGVPSRFSGSGSGTDFTLTISSLQPEDFATYYCQQSYSFPFTFGQGTKVEIK
In the case of B1, the binding entry in experiment [1] and in experiment [2] was “binds” each time.

B2: MSLN34 S192F scFv (scFv, not shown: small tags and cut ends)
scFv: B1 scFv with S192F
B2: the binding entry in experiment [2] was “binds”.

B3: MSLN34 D31L/S192R scFv (scFv, not shown: small tags and cut ends)
scFv: B1 scFv with D31L, S192R
On to B3, for which the binding entry in experiment [1] and in experiment [3] was “binds” in each case.

B4: MSLN34 S192R scFv (scFv, not shown: small tags and cut ends)
scFv: B1 scFv with S192R
For the molecule B4, the binding entry in experiment [4], in experiment [2] and in experiment [3] was “binds” throughout.

B5: MSLN34 D31L scFv (scFv, not shown: small tags and cut ends)
scFv: B1 scFv with D31L
Take B5: the binding result in experiment [4], in experiment [2] and in experiment [3] was “binds” in each case.

Source of the values: patent US20260007749A1.
